PubChem BioAssay AID1259308 | NCATS – 2017

Screen: 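Candidate targets for better recombinant protein yield in mammalian cells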 (primary screen)
System: human HEK293 embryonic kidney cells stably expressing firefly luciferase (HEK-CMV-Luc2-Hygro)
Reagents: single siRNA against human genes, 0.8 pmol siRNA per well
Duration: 72 h
Measurement: 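Luciferase light (ONE-Glo) measured on one replicate plate set and viability (CellTiter-Glo) on the other, scaled to a negative control siRNA, with robust z-scores and luciferase per cell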
Direction: total luciferase, z-score and total luciferase, % of control: higher = more reporter protein produced; luciferase per cell, z-score: higher = more reporter output per viable cell; viable cells, % of control: higher = more viable cells
Hit rule: 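Active when the median/MAD z-score for overall luciferase is greater than 3; a gene was taken forward for validation with new siRNAs if at least two of its three siRNAs passed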
Meaning of the calls: active = raised luciferase; inactive = no rise
This is one part, drawn at random, of about 59,000 deposited reagents. About 1,510 of all reagents (2.6%) count as active. 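Calls use total luciferase alone and ignore viability, so some active siRNAs may act by altering cell number.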 Unmarked entries are inactive. Reagents against one gene are numbered here. No sequences are given here.

Gene | reagent no. | total luciferase, z-score | total luciferase, % of control | luciferase per cell, z-score | viable cells, % of control
IL12RB1 | 1 | -0.0774 | 80.3 | -0.402 | 99.8
IL12RB1 | 2 | -0.0326 | 81.2 | -0.231 | 96.5
IL12RB1 | 3 | -0.457 | 72.8 | -0.986 | 105
C15orf40 | 1 | -0.527 | 71.4 | -0.247 | 85.2
C15orf40 | 2 | 0.196 | 85.8 | -0.0462 | 97
C15orf40 | 3 | 0.471 | 91.3 | 0.543 | 88.4
RDH12 | 1 | 1.91 | 120 | 0.902 | 106
RDH12 | 2 | 0.946 | 101 | 0.471 | 99.4
RDH12 | 3 | 0.18 | 85.5 | -0.729 | 116
IFI16 | 1 | 0.703 | 95.9 | 0.453 | 95.1
IFI16 | 2 | 1.09 | 104 | 0.45 | 103
IFI16 | 3 | -0.555 | 70.9 | -0.287 | 85.4

Part of the list above, showing only “total luciferase, z-score”.
C15orf40 #3	0.471
RDH12 #1	1.91
RDH12 #2	0.946

More reagents follow:
Gene | reagent no. | total luciferase, z-score | total luciferase, % of control | luciferase per cell, z-score | viable cells, % of control
DOK6 | 1 | 1.24 | 107 | 1.35 | 83.4
DOK6 | 2 | -0.487 | 72.2 | -0.49 | 91.8
DOK6 | 3 | 2.26 | 127 | 4.46 | 43.8
ETFB | 1 | 1.49 | 112 | 0.754 | 102
ETFB | 2 | -0.479 | 72.4 | -0.548 | 93.4
ETFB | 3 | 0.638 | 94.6 | 0.268 | 98.5
SMIM43 | 1 | 0.706 | 95.9 | 0.392 | 96.7
SMIM43 | 2 | -1.16 | 58.9 | -0.971 | 84.9
SMIM43 | 3 | 1.05 | 103 | 0.322 | 106
FNDC7 | 1 | 0.73 | 96.4 | 1.34 | 75.6
FNDC7 | 2 | 0.274 | 87.3 | 0.523 | 85
FNDC7 | 3 | 0.388 | 89.6 | 0.913 | 78.7
